No constants are given. Whether binding was seen depends on the method and setting. Some results given as binding are weak or reduced against the parent protein; the word gives no strength. For part of these data: Where a sequence is shown, tags or fusion partners need not be part of it.
Legend:
[1] = molecular target: AtNRP2 NT/CT (AtNRP2 residues 14-223) (Arabidopsis thaliana) (UniProt Q8LC68); experiment: SEC; analytical gel filtration, Superdex 200 10/300 GL, 4 °C, 20 mM Tris-HCl with 0.2, 0.5 or 2.0 M NaCl after dialysis into the same buffer; both purified
[2] = molecular target: AtNRP2 NT/CT (AtNRP2 residues 14-223) (Arabidopsis thaliana) (UniProt Q8LC68); experiment: crystal structure; AtNRP2 NT/CT, space group H32, 3.42 Å, two molecules in the asymmetric unit; molecular replacement with PDB 5DAY; both purified
[3] = molecular target: full-length Arabidopsis thaliana NAP1-Related Protein 2 (AtNRP2-His) (Arabidopsis thaliana) (UniProt Q8LC68); experiment: SEC; analytical gel filtration, Superdex 200 10/300 GL, 4 °C, 20 mM Tris-HCl with 0.2, 0.5 or 2.0 M NaCl after dialysis into the same buffer; both purified

B1: AtNRP2 NT/CT (AtNRP2 residues 14-223) (domain or fragment, UniProt Q8LC68-2 14-223)
chain: ENVEQIDAELVLSIEKLQEIQDDLEKINEKASDEVLEVEQKYNVIRKPVYDKRNEIIKTIPDFWLTAFLSHPALGELLTEEDQKIFKYLSSLDVEDAKDVKSGYSITFSFNPNPFFEDGKLTKTFTFLEEGTTKITATPIKWKEGKGLANGVNHEKNGNKRALPEESFFTWFSDAQHKEDVEDEMQDEQVADIIKEDLWPNPLTYFNNDA
[1]
  binding: binds
[2]
  binding: binds

B2: full-length Arabidopsis thaliana NAP1-Related Protein 2 (AtNRP2-His) (protein, UniProt Q8LC68-2 1-256)
chain: MVTDKSKKAKTEEENVEQIDAELVLSIEKLQEIQDDLEKINEKASDEVLEVEQKYNVIRKPVYDKRNEIIKTIPDFWLTAFLSHPALGELLTEEDQKIFKYLSSLDVEDAKDVKSGYSITFSFNPNPFFEDGKLTKTFTFLEEGTTKITATPIKWKEGKGLANGVNHEKNGNKRALPEESFFTWFSDAQHKEDVEDEMQDEQVADIIKEDLWPNPLTYFNNDADEEDFDGDDDGDEEEKEGDSDEDDDEEDEVGEE
[3]
  binding: binds

— publication PMC6630525
